## Percent effect of library compounds

Data taken from ChEMBL document CHEMBL3988442, “University of Dundee, Small-Polar-MMV Screening Library” (2021).

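Whole-cell growth test on Mycobacterium tuberculosis, read after 4 days in a medium based on cholesterol and the lipid DPPC; the read-out is not stated. Compounds at 500 µM. Higher reads as more growth inhibition (inferred: compounds with an IC50 in retests scored well above the rest). About 18,000 compounds were tested under these conditions; 5% (about 900) showed 50% or more at least once.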

Each number is a percent effect as filed.
The record does not define 0% and 100%; most values in the screen are far below 50% and negative numbers occur (in some assays of this library far below -100).
The compounds are a random part of those screened.

Result for CC(C)N1CCC(N2CCNCC2CCO)CC1 (centres undefined) was 3.769%.
Result for NC(=O)C1CCN(C(=O)COC(=O)c2cccs2)CC1 was -1.772%.
Result for O=C(Nc1cccc(F)c1)C1CCCN1 (centres undefined) was 9.919%.
Result for N#Cc1ccc(N2CCN(c3ccccn3)CC2)nc1 was -3.135%.
Result for Cc1ccc(C(=O)N2CCOCC2)cc1NS(C)(=O)=O was 7.899%.
Result for CC(C)c1ccsc1C(=O)NCCCC(N)=O was 0.8227%.
Result for CN(C)C(=O)c1cc2ccccc2cc1O was 8.944%.
Result for NC(CO)c1c(F)cccc1F (centres undefined) was -3.976%.
Result for NC(=O)c1cc(F)ccc1N1CCNCC1 was 7.682%.
Result for CC1(C(=O)Nc2cccc(Cl)c2)CCCCC(=O)N1 (centres undefined) was 6.98%.
Result for COc1ccc2[nH]c(C(=O)NCC3CCCO3)cc2c1 (centres undefined) was 67.83%.
Result for CCC(CCO)NS(=O)(=O)c1cccc2ncccc12 (centres undefined) was -7.167%.
Result for CCC(CNC(=O)Nc1cc(C)nn1C)N1CCCC1 (centres undefined) was 1.627%.
Result for CCSCC(C)N(C)CC(=O)Nc1c(C)n[nH]c1C (centres undefined) was 10.95%.
Result for Cc1ccc(NC(=O)NCC(=O)NC(C)(C)C)cc1 was 16.03%.
Result for Cc1n[nH]c(C)c1C(N)C(=O)NCCN1CCCC1 (centres undefined) was -11.33%.
Result for CC(C)(C(=O)N1CCC(N)CC1)c1cccc(F)c1 was 3.426%.
Result for OCCN(c1ncc(Cl)cn1)C1CC1 was 33.42%.
Result for CCc1noc(Cn2ccc3ncccc3c2=O)n1 was 7.867%.
Result for O=C(NC1CCCC1)[C@@H]1CSCN1C(=O)C1CC1 was 4.337%.
Result for NC(=O)CN1CCC(C(=O)Nc2ccc(Br)cn2)CC1 was -6.341%.
Result for Nc1ccn(-c2ncccc2F)n1 was 21.91%.
Result for CCC1(O)CCC12CCN(C(=O)c1cccnc1)CC2 (centres undefined) was 5.277%.
Result for CCC(C)NC(=O)c1cc(F)cc(F)c1 (centres undefined) was 59.74%.
Result for Cc1ccsc1CN(C)C(=O)c1ccccn1 was 28.51%.
Result for CCN(c1ccccc1C)S(C)(=O)=O was -7.701%.
Result for O=C1NC[C@@H]2[C@H]1CCCN2C(=O)c1cc(C2CC2)on1 was -0.9235%.
Result for Cc1noc(-c2ccc(C(N)=O)cc2)n1 was 5.331%.
Result for CCN(C)CCNS(=O)(=O)c1ccc(C(C)=O)cc1 was 11.43%.
Result for COc1ccccc1NC(=O)NCCn1ccnc1 was -6.06%.
Result for Cc1cn(CCNC(=O)c2cc(CC(C)C)n[nH]2)nn1 was 0.6448%.

Some entries from above, unchanged:

- CCC(CNC(=O)Nc1cc(C)nn1C)N1CCCC1 (centres undefined) | 1.627%
- Cc1n[nH]c(C)c1C(N)C(=O)NCCN1CCCC1 (centres undefined) | -11.33%
- CCSCC(C)N(C)CC(=O)Nc1c(C)n[nH]c1C (centres undefined) | 10.95%